The text below walks through data of doi:10.1101/2021.04.04.438364.

Protein sequences, listed by entry. Tags and fused reporters are not part of them.
UniProt P39687: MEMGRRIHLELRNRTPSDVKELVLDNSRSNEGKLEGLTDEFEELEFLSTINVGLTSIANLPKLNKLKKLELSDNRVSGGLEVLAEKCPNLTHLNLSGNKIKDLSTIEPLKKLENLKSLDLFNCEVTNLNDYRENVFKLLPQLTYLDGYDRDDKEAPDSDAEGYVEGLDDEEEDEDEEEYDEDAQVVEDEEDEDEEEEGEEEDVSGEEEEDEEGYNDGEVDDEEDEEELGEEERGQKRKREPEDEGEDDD
UniProt O15169: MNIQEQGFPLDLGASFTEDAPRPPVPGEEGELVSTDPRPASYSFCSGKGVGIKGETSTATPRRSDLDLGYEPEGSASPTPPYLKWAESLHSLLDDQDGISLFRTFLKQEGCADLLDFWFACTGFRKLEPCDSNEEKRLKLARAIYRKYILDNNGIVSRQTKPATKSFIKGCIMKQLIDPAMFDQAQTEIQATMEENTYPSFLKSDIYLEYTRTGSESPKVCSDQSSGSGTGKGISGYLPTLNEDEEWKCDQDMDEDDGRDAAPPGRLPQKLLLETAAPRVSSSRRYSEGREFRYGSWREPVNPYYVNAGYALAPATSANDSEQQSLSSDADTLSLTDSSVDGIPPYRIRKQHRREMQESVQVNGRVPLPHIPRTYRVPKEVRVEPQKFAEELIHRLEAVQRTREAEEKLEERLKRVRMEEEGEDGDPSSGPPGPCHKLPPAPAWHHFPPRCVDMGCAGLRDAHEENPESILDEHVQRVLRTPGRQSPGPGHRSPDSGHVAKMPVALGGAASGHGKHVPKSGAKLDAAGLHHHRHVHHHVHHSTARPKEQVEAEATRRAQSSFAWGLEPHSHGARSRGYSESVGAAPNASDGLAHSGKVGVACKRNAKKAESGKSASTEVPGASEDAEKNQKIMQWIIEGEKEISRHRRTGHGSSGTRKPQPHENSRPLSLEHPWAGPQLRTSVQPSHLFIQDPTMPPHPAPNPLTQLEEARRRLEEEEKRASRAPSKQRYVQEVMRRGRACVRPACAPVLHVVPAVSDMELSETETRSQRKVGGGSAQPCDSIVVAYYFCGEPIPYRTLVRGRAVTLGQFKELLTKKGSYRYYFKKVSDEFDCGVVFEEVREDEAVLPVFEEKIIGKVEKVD
UniProt P35222: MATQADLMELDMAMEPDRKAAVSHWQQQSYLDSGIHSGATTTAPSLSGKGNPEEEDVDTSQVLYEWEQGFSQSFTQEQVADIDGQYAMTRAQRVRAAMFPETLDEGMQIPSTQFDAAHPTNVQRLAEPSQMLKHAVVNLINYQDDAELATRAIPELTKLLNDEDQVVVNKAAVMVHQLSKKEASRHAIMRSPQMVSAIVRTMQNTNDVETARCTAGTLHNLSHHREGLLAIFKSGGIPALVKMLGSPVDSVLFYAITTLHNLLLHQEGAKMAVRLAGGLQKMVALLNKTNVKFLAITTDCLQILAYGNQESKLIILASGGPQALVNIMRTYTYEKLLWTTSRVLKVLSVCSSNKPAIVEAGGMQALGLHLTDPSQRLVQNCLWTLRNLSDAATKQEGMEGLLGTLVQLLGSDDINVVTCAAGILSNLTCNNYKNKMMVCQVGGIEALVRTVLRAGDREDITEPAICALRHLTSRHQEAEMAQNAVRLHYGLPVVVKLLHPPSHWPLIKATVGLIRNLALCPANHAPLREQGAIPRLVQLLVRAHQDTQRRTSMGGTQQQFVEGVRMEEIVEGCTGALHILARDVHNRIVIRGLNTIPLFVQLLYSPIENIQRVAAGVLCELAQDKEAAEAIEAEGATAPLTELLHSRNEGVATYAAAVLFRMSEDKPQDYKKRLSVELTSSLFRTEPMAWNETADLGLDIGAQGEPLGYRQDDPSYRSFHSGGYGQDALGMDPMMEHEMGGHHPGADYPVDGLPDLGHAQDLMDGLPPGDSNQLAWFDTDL

Results are given in words; binding and its absence hold for the method and conditions named. Binding seen in cells or lysates may run through a third protein. Some binding calls cover weakened binding; strength is not graded here.

The target in this test is acidic leucine rich nuclear phosphoprotein-32A (ANP32A) (human (endogenous in human articular chondrocytes)) (UniProt P39687). Description: co-IP.

For the substance AXIN1 (from UniProt O15169 1-862), the binding result is listed as “binds”. Next, β-catenin (from UniProt P35222 1-781): “binds”.
